# Measured values published in patent US9102678B2, “Compounds and methods for inhibiting mitotic progression” (Millennium Pharmaceuticals, Inc., priority 2004, dated 2015).
# Protein sequences, listed by entry. Tags and fused reporters are not part of them. Lines headed by an entry give the natural chain unless they say otherwise; changes in a name come on top.
# UniProt P97477: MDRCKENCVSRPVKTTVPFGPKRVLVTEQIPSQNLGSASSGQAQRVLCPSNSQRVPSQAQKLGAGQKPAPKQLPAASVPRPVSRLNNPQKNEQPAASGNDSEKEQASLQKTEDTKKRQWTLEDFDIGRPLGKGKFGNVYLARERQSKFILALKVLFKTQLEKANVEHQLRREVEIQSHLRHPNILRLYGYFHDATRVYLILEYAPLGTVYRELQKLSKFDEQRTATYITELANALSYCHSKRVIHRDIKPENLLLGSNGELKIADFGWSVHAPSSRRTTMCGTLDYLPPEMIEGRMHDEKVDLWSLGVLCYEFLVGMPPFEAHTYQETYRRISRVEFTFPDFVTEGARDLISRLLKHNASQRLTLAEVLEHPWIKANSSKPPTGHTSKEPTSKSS
# Some of these results come from one statement about several compounds together.
# Target: T1, recombinant murine Aurora A enzyme (Mus musculus, UniProt P97477)
# T1 construct: hexahistidine (His6) (N); made in house; host or cells: insect cells, baculovirus (Bac-to-Bac, Invitrogen)
# Test: Aurora A DELFIA Kinase Assay
# Type: biochemical
# Details: 250 μM ATP, threshold less than or equal to 1.0 μM
row,SMILES,IC50 [nM]
1,"CN(C)C1CN(C(=N)NC(=O)c2ccc(Nc3ncc4c(n3)-c3ccc(Cl)cc3C(c3c(F)cccc3F)=NC4)cc2)C1 [Compound I-259, 4-{[9-chloro-7-(2,6-difluorophenyl)-5H-pyrimido[5,4-d][2]benzazepin-2-yl]amino}-N-[[3-(dimethylamino)azetidin-1-yl](imino)methyl]benzamide]",≤ 1000
2,"C[C@H](NC(=O)c1ccc(Nc2ncc3c(n2)-c2ccc(Cl)cc2C(c2ccccc2F)=NC3)cc1)C(=O)O [Compound I-118, 2-{4-[9-Chloro-7-(2-fluoro-phenyl)-5H-benzo[c]pyrimido[4,5-e]azepin-2-ylamino]-benzoylamino}-propionic acid]",≤ 1000
3,"CC1CN(C(=O)c2ccc(Nc3ncc4c(n3)-c3ccc(Cl)cc3C(c3ccccc3F)=NC4)cc2)CCN1 (stereo not drawn) [Compound I-113, {4-[9-Chloro-7-(2-fluoro-phenyl)-5H-benzo[c]pyrimido[4,5-e]azepin-2-ylamino]-phenyl}-(3-methyl-piperazin-1-yl)-methanone]",≤ 1000
4,"O=C(O)c1cc(Nc2ncc3c(n2)-c2ccc(Cl)cc2C(c2c(F)cccc2F)=NC3)ccc1Cl [Compound I-258, 2-chloro-5-{[9-chloro-7-(2,6-difluorophenyl)-5H-pyrimido[5,4-d][2]benzazepin-2-yl]amino}benzoic acid]",≤ 1000
5,"O=C(O)c1ccc(Nc2ncc3c(n2)-c2ccc(Cl)cc2C(c2ccccc2F)=NC3)cc1Cl [Compound I-134, 2-Chloro-4-[9-chloro-7-(2-fluoro-phenyl)-5H-benzo[c]pyrimido-[4,5-e]azepin-2-ylamino]-benzoic acid]",≤ 1000
6,"CNC1CCN(C(=O)c2ccc(Nc3ncc4c(n3)-c3ccc(Cl)cc3C(c3ccccc3OC)=NC4)cc2)CC1 [Compound I-331, 9-chloro-7-(2-methoxyphenyl)-N-(4-{[4-(methylamino)piperidin-1-yl]carbonyl}phenyl)-5H-pyrimido[5,4-d][2]benzazepin-2-amine]",≤ 1000
7,"CNC(=O)c1ccc(Nc2ncc3c(n2)-c2ccc(Cl)cc2C(c2c(F)cccc2NC)=NC3)cc1 [Compound I-354, 4-({9-chloro-7-[2-fluoro-6-(methylamino)phenyl]-5H-pyrimido[5,4-d][2]benzazepin-2-yl}amino)-N-methylbenzamide]",≤ 1000
8,"COc1ccc2c(c1)C(c1ccccc1F)=NCc1cnc(Nc3ccc(C(=O)N4CCC(N(C)C)C4)cc3)nc1-2 (stereo not drawn) [Compound I-93, (3-Dimethylamino-pyrrolidin-1-yl)-{4-[7-(2-fluoro-phenyl)-9-methoxy-5H-benzo[c]pyrimido[4,5-e]azepin-2-ylamino]-phenyl}-methanone]",≤ 1000
9,"CN(C)CCN(C)C(=O)c1ccc(Nc2ncc3c(n2)-c2ccc(Cl)cc2C(c2ccccc2F)=NC3)cc1 [Compound I-5, 4-[9-Chloro-7-(2-fluoro-phenyl)-5H-benzo[c]pyrimido[4,5-e]azepin-2-ylamino]-N-(2-dimethylamino-ethyl)-N-methyl-benzamide]",≤ 1000
10,"O=C(Nc1ccc(Nc2ncc3c(n2)-c2ccc(Cl)cc2C(c2c(F)cccc2F)=NC3)cc1)C1CCNCC1 [Compound I-319, N-(4-{[9-chloro-7-(2,6-difluorophenyl)-5H-pyrimido[5,4-d][2]benzazepin-2-yl]amino}phenyl)piperidine-4-carboxamide]",≤ 1000
11,"CCN(CC)CCCN1CCN(C(=O)c2ccc(Nc3ncc4c(n3)-c3ccc(Cl)cc3C(c3ccccc3F)=NC4)cc2)CC1 [Compound I-208, 9-chloro-N-[4-({4-[3-(diethylamino)propyl]piperazin-1-yl}carbonyl)phenyl]-7-(2-fluorophenyl)-5H-pyrimido[5,4-d][2]benzazepin-2-amine]",≤ 1000
12,"CNC(=O)c1ccc(Nc2ncc3c(n2)-c2ccc(Cl)cc2C(c2c(F)cccc2NCCN)=NC3)cc1 [Compound I-340, 4-[(7-{2-[(2-aminoethyl)amino]-6-fluorophenyl}-9-chloro-5H-pyrimido[5,4-d][2]benzazepin-2-yl)amino]-N-methylbenzamide]",≤ 1000
